Measurements as given in patent US20150284900A1, “Novel Activator for Hydrogen Peroxide and Its Application” (priority 2014, published 2015).

experiment: Cotton fabric bleaching using the hydrogen peroxide activators; conditions: 2 g fine cotton fabric; phosphate buffer pH 7.2; 36 mmol/L hydrogen peroxide; 0.5 g/L EDTA; 0.5 g/L SDBS; 30 mmol/L activator; 50° C. for 30 min

First: O=C1CCCCN1C(=O)c1cccnc1 [Activator 2]
Second: O=C1CCCCCN1C(=O)c1cccnc1 [Activator 3]
The CIE whiteness of the first is higher: 53.40 for the first, 52.35 for the second.

First: O=C1CCCCCCN1C(=O)c1cccnc1 [Activator 4]
Second: O=C1CCCCCCCN1C(=O)c1cccnc1 [Activator 5]
The CIE whiteness of the first is lower: 52.95 for the first, 54.55 for the second.
